PubChem BioAssay AID602196 – INSERM, 2012

Purpose: 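Genes whose knock-down alters cisplatin killing of lung cancer cells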
Cell system: human A549 lung cancer cells
Reagent: siRNA pair against human genes
Duration: 48 h transfection before cisplatin; time from cisplatin to read-out not stated
Treatment: cisplatin at a dose killing half of control-siRNA cells; exact dose and duration not given
Measurement: 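Shift in cisplatin death relative to control siRNA, from -50 (all cells die) to +50 (no cells die); siRNAs harmful on their own scored 0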
Scale: two-siRNA summed score (-2 to +2): higher = both siRNAs protect from cisplatin killing; -2 means both sensitise; mean protection from cisplatin (shift in death): higher = protection from cisplatin killing
Hit rule: 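siRNAs harmful alone (LDH or WST-1) get 0; others get +1 for less and -1 for more cisplatin killing; genes are active when the two siRNAs give the same sign, summing to ±2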
Meaning of the calls: active = both siRNAs shift cisplatin killing the same way; inactive = no consistent shift, or siRNA harmful alone
Shown is one part, drawn at random, of about 23,000 deposited reagents. 455 of all reagents (2%) count as active. 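Active includes both protection and sensitisation; some change values fall well beyond the stated -50 to +50 range.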 Not all columns of the deposit are shown. The record does not give: the amount of reagent.

| target | two-siRNA summed score (-2 to +2) | mean protection from cisplatin (shift in death) (%) | activity call |
| --- | --- | --- | --- |
| LOC441894 | 1 | 11.2 | inactive |
| OR10J5 | 1 | 15.1 | inactive |
| ALOX12B | 0 | -7.8 | inactive |
| TSPAN9 | 0 | 2.2 | inactive |
| LOC440455 | 0 | 7 | inactive |
| CYP2R1 | 0 | 0.4 | inactive |
| CENPW | 0 | 9.6 | inactive |
| CMSS1 | 0 | -0.1 | inactive |
| FLJ35171 | 0 | 1.4 | inactive |
| DEUP1 | 0 | -3.8 | inactive |
| LOC389228 | 0 | -1.5 | inactive |
| OR7A17 | 0 | 12 | inactive |
| LOC441111 | -1 | -9.1 | inactive |
| GDF2 | 1 | 4.2 | inactive |
| LOC441792 | 0 | 6.7 | inactive |
| KRTAP9-2 | 0 | 8.6 | inactive |
| CACUL1 | 0 | 6.3 | inactive |
| LOC402720 | 0 | 1.8 | inactive |
| CHST8 | -1 | -4 | inactive |
| LOC390217 | 0 | 6.1 | inactive |
| LOC440082 (retired record) | 0 | 7.3 | inactive |
| HSPA12B | 0 | -0.7 | inactive |
| LOC441845 | 0 | 7 | inactive |
| RPS10 | 0 | 32.6 | inactive |
| AKR1A1 | -1 | -20.2 | inactive |
| ANKMY1 | 0 | 3.3 | inactive |
| LOC441113 | 0 | 4.6 | inactive |
| TMEM40 | 0 | 2.4 | inactive |
| SCN7A | 0 | -7.1 | inactive |
| LOC441576 | 0 | 0.3 | inactive |
| SLC38A2 | 0 | 8.6 | inactive |
| BRD4 | 0 | 7.9 | inactive |
| TMIE | 0 | 7.6 | inactive |
| ROM1 | 1 | 15.1 | inactive |
| OCLN | 0 | 5.4 | inactive |
| ZNF304 | 0 | 5.1 | inactive |
| C1orf220 | 0 | 4.7 | inactive |
| OR6C70 | -1 | -3.2 | inactive |
| SPATA20 | 1 | 5.2 | inactive |
| HCN3 | 0 | 11.2 | inactive |
| LOC389844 | 0 | 10.3 | inactive |
| ABCB4 | 0 | 22.4 | inactive |
| LOC442689 | 0 | 10.4 | inactive |
| LOC442711 | 0 | 5.4 | inactive |
| LOC440686 | 0 | 13.8 | inactive |
| PHF7 | 0 | -19.2 | inactive |
| OR9I1 | 0 | -4.4 | inactive |
| DNASE1L1 | 0 | 3.5 | inactive |
| MRTO4 | 0 | 2.6 | inactive |
| ANKMY2 | 0 | 4.3 | inactive |
| FASTKD5 | 0 | 4.9 | inactive |
| PYY2 | -1 | -17 | inactive |
| MYLK2 | 0 | 4.8 | inactive |
| RASAL2 | 0 | -4.6 | inactive |
| LOC391265 | 0 | 6 | inactive |
| LOC388438 | 0 | -1.7 | inactive |
| FUT1 | 1 | 27.9 | inactive |
| TMPRSS11E | 0 | 12.5 | inactive |
| NOP56 | 0 | -4.6 | inactive |
| CLRN1 | 0 | -5.1 | inactive |
| CBS | 0 | -1.1 | inactive |
| SPRTN | 1 | 8.5 | inactive |
| DNAJB6P1 | 0 | 9 | inactive |
| LOC440039 | -1 | -6.9 | inactive |
| BIN2 | 0 | 4.7 | inactive |
| LOC442600 | 1 | 20 | inactive |
| LPCAT3 | 0 | -2.7 | inactive |
| BPIFA2 | 0 | 8.1 | inactive |
| LOC344371 | 0 | 8.3 | inactive |
| PTPN4 | 0 | 2.1 | inactive |
| HERPUD2 | 1 | 17.8 | inactive |
| TARBP2 | -1 | -5.3 | inactive |
| HAUS1 | 0 | 14.1 | inactive |

Just “mean protection from cisplatin (shift in death) (%)” (4 entries from above):
LOC441894 = 11.2
OR10J5 = 15.1
ALOX12B = -7.8
TSPAN9 = 2.2
